Test results as given in paper PMC8894380.
Changes are numbered by the printed parent chain. No constants are given. Whether binding was seen depends on the method and setting. Binding seen in cells or lysates may run through a third protein. These calls come from enrichment with a bait or labelling near it, and not all partners need be listed. Sequences can lack the tags named with a protein.

T1: C9ORF78 with C-terminal 3xFlag-His6-Biotin-His6 tag (human) (UniProt Q9NZ63)
T1 sequence: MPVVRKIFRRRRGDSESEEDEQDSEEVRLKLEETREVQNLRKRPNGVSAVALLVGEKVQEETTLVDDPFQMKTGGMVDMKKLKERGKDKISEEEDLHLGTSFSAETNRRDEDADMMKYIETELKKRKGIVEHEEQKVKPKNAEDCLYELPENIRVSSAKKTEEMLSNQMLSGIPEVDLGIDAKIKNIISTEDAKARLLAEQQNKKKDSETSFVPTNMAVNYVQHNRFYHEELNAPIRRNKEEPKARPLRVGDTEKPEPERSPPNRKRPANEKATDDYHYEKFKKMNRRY

T2: C9ORF78^R41A with C-terminal 3xFlag-His6-Biotin-His6 tag (human) (UniProt Q9NZ63)
T2 sequence: T1 sequence with R41A

B1: SYF1 (protein, UniProt Q9HCS7 1-855)
chain: MVVMARLSRPERPDLVFEEEDLPYEEEIMRNQFSVKCWLRYIEFKQGAPKPRLNQLYERALKLLPCSYKLWYRYLKARRAQVKHRCVTDPAYEDVNNCHERAFVFMHKMPRLWLDYCQFLMDQGRVTHTRRTFDRALRALPITQHSRIWPLYLRFLRSHPLPETAVRGYRRFLKLSPESAEEYIEYLKSSDRLDEAAQRLATVVNDERFVSKAGKSNYQLWHELCDLISQNPDKVQSLNVDAIIRGGLTRFTDQLGKLWCSLADYYIRSGHFEKARDVYEEAIRTVMTVRDFTQVFDSYAQFEESMIAAKMETASELGREEEDDVDLELRLARFEQLISRRPLLLNSVLLRQNPHHVHEWHKRVALHQGRPREIINTYTEAVQTVDPFKATGKPHTLWVAFAKFYEDNGQLDDARVILEKATKVNFKQVDDLASVWCQCGELELRHENYDEALRLLRKATALPARRAEYFDGSEPVQNRVYKSLKVWSMLADLEESLGTFQSTKAVYDRILDLRIATPQIVINYAMFLEEHKYFEESFKAYERGISLFKWPNVSDIWSTYLTKFIARYGGRKLERARDLFEQALDGCPPKYAKTLYLLYAQLEEEWGLARHAMAVYERATRAVEPAQQYDMFNIYIKRAAEIYGVTHTRGIYQKAIEVLSDEHAREMCLRFADMECKLGEIDRARAIYSFCSQICDPRTTGAFWQTWKDFEVRHGNEDTIKEMLRIRRSVQATYNTQVNFMASQMLKVSGSATGTVSDLAPGQSGMDDMKLLEQRAEQLAAEAERDQPLRAQSKILFVRSDASREELAELAQQVNPEEIQLGEDEDEDEMDLEPNEVRLEQQSVPAAVFGSLKED
B2: CWC27 (protein, UniProt Q6UX04 1-472)
chain: MSNIYIQEPPTNGKVLLKTTAGDIDIELWSKEAPKACRNFIQLCLEAYYDNTIFHRVVPGFIVQGGDPTGTGSGGESIYGAPFKDEFHSRLRFNRRGLVAMANAGSHDNGSQFFFTLGRADELNNKHTIFGKVTGDTVYNMLRLSEVDIDDDERPHNPHKIKSCEVLFNPFDDIIPREIKRLKKEKPEEEVKKLKPKGTKNFSLLSFGEEAEEEEEEVNRVSQSMKGKSKSSHDLLKDDPHLSSVPVVESEKGDAPDLVDDGEDESAEHDEYIDGDEKNLMRERIAKKLKKDTSANVKSAGEGEVEKKSVSRSEELRKEARQLKRELLAAKQKKVENAAKQAEKRSEEEEAPPDGAVAEYRREKQKYEALRKQQSKKGTSREDQTLALLNQFKSKLTQAIAETPENDIPETEVEDDEGWMSHVLQFEDKSRKVKDASMQDSDTFEIYDPRNPVNKRRREESKKLMREKKERR
B3: PRPF6 (protein, UniProt O94906 1-941)
chain: MNKKKKPFLGMPAPLGYVPGLGRGATGFTTRSDIGPARDANDPVDDRHAPPGKRTVGDQMKKNQAADDDDEDLNDTNYDEFNGYAGSLFSSGPYEKDDEEADAIYAALDKRMDERRKERREQREKEEIEKYRMERPKIQQQFSDLKRKLAEVTEEEWLSIPEVGDARNKRQRNPRYEKLTPVPDSFFAKHLQTGENHTSVDPRQTQFGGLNTPYPGGLNTPYPGGMTPGLMTPGTGELDMRKIGQARNTLMDMRLSQVSDSVSGQTVVDPKGYLTDLNSMIPTHGGDINDIKKARLLLKSVRETNPHHPPAWIASARLEEVTGKLQVARNLIMKGTEMCPKSEDVWLEAARLQPGDTAKAVVAQAVRHLPQSVRIYIRAAELETDIRAKKRVLRKALEHVPNSVRLWKAAVELEEPEDARIMLSRAVECCPTSVELWLALARLETYENARKVLNKARENIPTDRHIWITAAKLEEANGNTQMVEKIIDRAITSLRANGVEINREQWIQDAEECDRAGSVATCQAVMRAVIGIGIEEEDRKHTWMEDADSCVAHNALECARAIYAYALQVFPSKKSVWLRAAYFEKNHGTRESLEALLQRAVAHCPKAEVLWLMGAKSKWLAGDVPAARSILALAFQANPNSEEIWLAAVKLESENDEYERARRLLAKARSSAPTARVFMKSVKLEWVQDNIRAAQDLCEEALRHYEDFPKLWMMKGQIEEQKEMMEKAREAYNQGLKKCPHSTPLWLLLSRLEEKIGQLTRARAILEKSRLKNPKNPGLWLESVRLEYRAGLKNIANTLMAKALQECPNSGILWSEAIFLEARPQRRTKSVDALKKCEHDPHVLLAVAKLFWSQRKITKAREWFHRTVKIDSDLGDAWAFFYKFELQHGTEEQQEEVRKRCESAEPRHGELWCAVSKDIANWQKKIGDILRLVAGRIKNTF
B4: SNRNP40 (protein, UniProt Q96DI7 1-357)
chain: MIEQQKRKGPELPLVPVKRQRHELLLGAGSGPGAGQQQATPGALLQAGPPRCSSLQAPIMLLSGHEGEVYCCKFHPNGSTLASAGFDRLILLWNVYGDCDNYATLKGHSGAVMELHYNTDGSMLFSASTDKTVAVWDSETGERVKRLKGHTSFVNSCYPARRGPQLVCTGSDDGTVKLWDIRKKAAIQTFQNTYQVLAVTFNDTSDQIISGGIDNDIKVWDLRQNKLTYTMRGHADSVTGLSLSSEGSYLLSNAMDNTVRVWDVRPFAPKERCVKIFQGNVHNFEKNLLRCSWSPDGSKIAAGSADRFVYVWDTTSRRILYKLPGHAGSINEVAFHPDEPIIISASSDKRLYMGEIQ
B5: GPKOW (protein, UniProt Q92917 1-476)
chain: MADSKEGVLPLTAASTAPISFGFTRTSARRRLADSGDGAGPSPEEKDFLKTVEGRELQSVKPQEAPKELVIPLIQNGHRRQPPARPPGPSTDTGALADGVVSQAVKELIAESKKSLEERENAGVDPTLAIPMIQKGCTPSGEGADSEPRAETVPEEANYEAVPVEAYGLAMLRGMGWKPGEGIGRTFNQVVKPRVNSLRPKGLGLGANLTEAQALTPTGPSRMPRPDEEQEKDKEDQPQGLVPGGAVVVLSGPHRGLYGKVEGLDPDNVRAMVRLAVGSRVVTVSEYYLRPVSQQEFDKNTLDLRQQNGTASSRKTLWNQELYIQQDNSERKRKHLPDRQDGPAAKSEKAAPRSQHWLHRDLRVRFVDNMYKGGQYYNTKMIIEDVLSPDTCVCRTDEGRVLEGLREDMLETLVPKAEGDRVMVVLGPQTGRVGHLLSRDRARSRALVQLPRENQVVELHYDAICQYMGPSDTDDD
B6: CWC22 (protein, UniProt Q9HCG8 1-908)
chain: MKSSVAQIKPSSGHDRRENLNSYQRNSSPEDRYEEQERSPRDRDYFDYSRSDYEHSRRGRSYDSSMESRNRDREKRRERERDTDRKRSRKSPSPGRRNPETSVTQSSSAQDEPATKKKKDELDPLLTRTGGAYIPPAKLRMMQEQITDKNSLAYQRMSWEALKKSINGLINKVNISNISIIIQELLQENIVRGRGLLSRSVLQAQSASPIFTHVYAALVAIINSKFPQIGELILKRLILNFRKGYRRNDKQLCLTASKFVAHLINQNVAHEVLCLEMLTLLLERPTDDSVEVAIGFLKECGLKLTQVSPRGINAIFERLRNILHESEIDKRVQYMIEVMFAVRKDGFKDHPIILEGLDLVEEDDQFTHMLPLEDDYNPEDVLNVFKMDPNFMENEEKYKAIKKEILDEGDTDSNTDQDAGSSEEDEEEEEEEGEEDEEGQKVTIHDKTEINLVSFRRTIYLAIQSSLDFEECAHKLLKMEFPESQTKELCNMILDCCAQQRTYEKFFGLLAGRFCMLKKEYMESFEGIFKEQYDTIHRLETNKLRNVAKMFAHLLYTDSLPWSVLECIKLSEETTTSSSRIFVKIFFQELCEYMGLPKLNARLKDETLQPFFEGLLPRDNPRNTRFAINFFTSIGLGGLTDELREHLKNTPKVIVAQKPDVEQNKSSPSSSSSASSSSESDSSDSDSDSSDSSSESSSEESDSSSISSHSSASANDVRKKGHGKTRSKEVDKLIRNQQTNDRKQKERRQEHGHQETRTERERRSEKHRDQNSSGSNWRDPITKYTSDKDVPSERNNYSRVANDRDQEMHIDLENKHGDPKKKRGERRNSFSENEKHTHRIKDSENFRRKDRSKSKEMNRKHSGSRSDEDRYQNGAERRWEKSSRYSEQSRESKKNQDRRREKSPAKQK
B7: DHX35 (protein, UniProt Q9H5Z1 1-703)
chain: MAAPVGPVKFWRPGTEGPGVSISEERQSLAENSGTTVVYNPYAALSIEQQRQKLPVFKLRNHILYLIENYQTVVIVGETGCGKSTQIPQYLAEAGWTAEGRVVGVTQPRRVAAVTVAGRVAEERGAVLGHEVGYCIRFDDCTDQLATRIKFLTDGMLVREMMVDPLLTKYSVIMLDEAHERTLYTDIAIGLLKKIQKKRGDLRLIVASATLDADKFRDFFNQNETSDPARDTCVILTVEGRTFPVDIFYLQSPVPDYIKSTVETVVKIHQTEGDGDVLAFLTGQEEVETVVSMLIEQARALARTGMKRHLRVLPMYAGLPSFEQMKVFERVSRSVRKVIVATNVAETSITISGIVYVIDCGFVKLRAYNPRTAIECLVVVPVSQASANQRAGRGGRSRSGKCYRLYTEEAFDKLPQSTVPEMQRSNLAPVILQLKALGIDNVLRFHFMSPPPAQSMVQALELLYALGGLDKDCRLTEPLGMRIAEFPLNPMFAKMLLESGNFGCSQEILSIAAMMQIQNIFVVPPNQKSHAIRVHRKFAVEEGDHLTMLNIYEAFIKHNKDSKWCQEHFLNYKGLVRAATVREQLKKLLVKFQVPRKSSEGDPDLVLRCIVSGFFANAARFHSTGAYRTIRDDHELHIHPASVLYAEKPPRWVIYNEVIQTSKYYMRDVTAIESAWLLELAPHFYQQGTHLSLKAKRAKVQDP
B8: PRPF38A (protein, UniProt Q8NAV1 1-312)
chain: MANRTVKDAHSIHGTNPQYLVEKIIRTRIYESKYWKEECFGLTAELVVDKAMELRFVGGVYGGNIKPTPFLCLTLKMLQIQPEKDIIVEFIKNEDFKYVRMLGALYMRLTGTAIDCYKYLEPLYNDYRKIKSQNRNGEFELMHVDEFIDELLHSERVCDIILPRLQKRYVLEEAEQLEPRVSALEEDMDDVESSEEEEEEDEKLERVPSPDHRRRSYRDLDKPRRSPTLRYRRSRSRSPRRRSRSPKRRSPSPRRERHRSKSPRRHRSRSRDRRHRSRSKSPGHHRSHRHRSHSKSPERSKKSHKKSRRGNE

Molecular target: T1, C9ORF78 with C-terminal 3xFlag-His6-Biotin-His6 tag (human)
Assay: affinity purification with mass spectrometry; Flag-IP (Flag M2 affinity gel) from 500 ug nuclear extract of Flp-In T-REx 293 stable cells, IP buffer 150 mM NaCl with benzonase, eluted with 3xFlag peptide; label-free LC-MS against control IP of unmodified cells

binding	Binder
binds	B1
binds	B2
binds	B3
binds	B4
binds	B5
binds	B6
binds	B7

Molecular target: T2, C9ORF78^R41A with C-terminal 3xFlag-His6-Biotin-His6 tag (human)
Assay: as above

binding	Binder
binds	B8
